Values quoted from earlier work as cited in patent publication US20250241996A1, “COMBINATORIAL, AND ROTATIONAL COMBINATORIAL THERAPIES” (Starrock Pharma Inc., priority 2022, published 2025).
“And” between values parts separate entries of the source, which are not always exact repeats. Equal entries are not always repeated. “Also recorded” adds a separate entry of the source. For part of these data: Not every detail of the peptide structures is certain; ends, links or a residue may be inferred. For part of these data: For at least one compound, name, drawing or mass did not settle the structure.

Experiments:
transgenic mice = conditions: Model: transgenic mice; cited from earlier work
[1] = Model: in vitro; cited from earlier work
Aβ-injected rat = conditions: Model: Aβ-injected rat; cited from earlier work
[2] = Duration 56 weeks; cited from earlier work
[3] = after one year of treatment; 2.6% with vehicle controls; cited from earlier work
[4] = longer term treatment (5 months); not observed with 2-6 weeks; cited from earlier work

CN(C)c1ccc(O)c2c1C[C@H]1C[C@H]3[C@H](N(C)C)C(O)=C(C(N)=O)C(=O)[C@@]3(O)C(O)=C1C2=O [Minocycline]
Results (transgenic mice): inhibit tau aggregates
Results [1]: decrease IL-1β, TNF-α, IL-6; also recorded: decrease caspase 3
Results (Aβ-injected rat): decrease of COX-2; also recorded: confer neuroprotection; also recorded: inhibit INOS and N species; also recorded: decrease BBB permeability

CCCCCCCCCCCCCCCC(=O)N[C@@H](CCC(=O)NCCCC[C@H](NC(=O)[C@H](C)NC(=O)[C@H](C)NC(=O)[C@H](CCC(N)=O)NC(=O)CNC(=O)[C@H](CCC(=O)O)NC(=O)[C@H](CC(C)C)NC(=O)[C@H](Cc1ccc(O)cc1)NC(=O)[C@H](CO)NC(=O)[C@H](CO)NC(=O)[C@@H](NC(=O)[C@H](CC(=O)O)NC(=O)[C@H](CO)NC(=O)[C@@H](NC(=O)[C@H](Cc1ccccc1)NC(=O)[C@@H](NC(=O)CNC(=O)[C@H](CCC(=O)O)NC(=O)[C@H](C)NC(=O)[C@@H](N)Cc1cnc[nH]1)[C@@H](C)O)[C@@H](C)O)C(C)C)C(=O)N[C@@H](CCC(=O)O)C(=O)N[C@@H](Cc1ccccc1)C(=O)N[C@H](C(=O)N[C@@H](C)C(=O)N[C@@H](Cc1c[nH]c2ccccc12)C(=O)N[C@@H](CC(C)C)C(=O)N[C@H](C(=O)N[C@@H](CCCNC(=N)N)C(=O)NCC(=O)N[C@@H](CCCNC(=N)N)C(=O)NCC(=O)O)C(C)C)[C@@H](C)CC)C(=O)O [liraglutide]
>%5 (percent of subjects who lost greater than 5%) [2]: 50.5% and 54.3%
>%10 (percent of subjects who lost greater than 10%) [2]: 25.2%
participants with 5% and more weight loss [2]: 50.5% and 54.3%
participants with 10% and more weight loss [2]: 25.2%
mean decrease of body weight [3]: 8%

CC[C@H](C)[C@H](NC(=O)[C@H](C)NC(=O)[C@H](CC(=O)O)NC(=O)[C@H](C)NC(=O)[C@@H](N)Cc1ccc(O)cc1)C(=O)N[C@@H](Cc1ccccc1)C(=O)N[C@H](C(=O)N[C@@H](CC(N)=O)C(=O)N[C@@H](CO)C(=O)N[C@@H](Cc1ccc(O)cc1)C(=O)N[C@@H](CCCNC(=N)N)C(=O)N[C@@H](CCCCN)C(=O)N[C@H](C(=O)N[C@@H](CC(C)C)C(=O)NCC(=O)N[C@@H](CCC(N)=O)C(=O)N[C@@H](CC(C)C)C(=O)N[C@@H](CO)C(=O)N[C@@H](C)C(=O)N[C@@H](CCCNC(=N)N)C(=O)N[C@@H](CCCCN)C(=O)N[C@@H](CC(C)C)C(=O)N[C@@H](CC(C)C)C(=O)N[C@@H](CCC(N)=O)C(=O)N[C@@H](CC(=O)O)C(=O)N[C@H](C(=O)N[C@@H](CCSC)C(=O)N[C@@H](CO)C(=O)N[C@@H](CCCNC(=N)N)C(N)=O)[C@@H](C)CC)C(C)C)[C@@H](C)O [sermorelin]
GH, IGF-1 and lean body mass [4]: increased GH and IGF-1 and increased lean body mass
